# Experimental data: paper PMC7819943, “Rice protein-binding microarrays: a tool to detect cis-acting elements near promoter regions in rice”
# The chains behind the UniProt entries cited, without tags or fusion partners.
# UniProt Q0JBA9, entry or part of it: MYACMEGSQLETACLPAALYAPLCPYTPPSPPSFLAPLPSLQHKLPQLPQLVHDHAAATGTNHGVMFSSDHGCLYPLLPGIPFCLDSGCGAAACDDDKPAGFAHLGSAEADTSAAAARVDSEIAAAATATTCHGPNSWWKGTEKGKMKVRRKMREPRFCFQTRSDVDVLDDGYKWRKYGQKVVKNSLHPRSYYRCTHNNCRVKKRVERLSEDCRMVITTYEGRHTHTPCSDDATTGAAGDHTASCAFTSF
# The other results are listed elsewhere or left out.
# Biological target: OsWRKY34 (Oryza sativa, UniProt Q0JBA9 1-250)
# Assay: protein-binding microarray (RPBM); PBS, 2% BSA, 51.3 ng/ul salmon testes DNA, 50 uM zinc acetate, 200 nM TF, 25 C, 1 h; high values mean tight binding
# Settings: protein: recombinant; tags: N-terminal polyhistidine and DsRed monomer fusion (pET32a); label: CyDye5-dUTP incorporated in the synthesized complementary strand; 3' TTTTT single-stranded linker to array surface; dsDNA, one strand shown
# Method in brief: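 Ni–NTA purification followed expression in E. coli BL21-CodonPlus of transcription factors fused N-terminally to a polyhistidine tag and DsRed. At 200 nM in PBS with 2% BSA, salmon testes DNA and 50 µM zinc acetate, the protein was incubated for 1 h at 25 °C with a custom Agilent array that had been primer-extended with Cy5-dUTP and blocked with 2% BSA. After washing, the array was read on an Axon 4000B scanner. The binding signal is per-feature fluorescence intensity in arbitrary units.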
row,Sequence,binding signal
1,GCACGCTGTTAACTGAAACGCTTTTGACTGACGGGTGGGACGGAGTCACCTAGTGCAG,8160 fluorescence intensity (a.u.)
2,TCTGCTCATCTCGGTTGGATCCATCCGTCCGTCGTCTCCTCGGAGTCACCTAGTGCAG,8760 fluorescence intensity (a.u.)
3,CACCCTAATCGCCGCCCGCGCCGTCTCCCACCTCGCCGGTCGGAGTCACCTAGTGCAG,8490 fluorescence intensity (a.u.)
4,TGTGCCCAGTGACCATATGCTGATGCAGGCTATAAACTTTCGGAGTCACCTAGTGCAG,8150 fluorescence intensity (a.u.)
5,CGGATTCGTTTCCAATTCCCGGCTCGGTTTGATATGTTTCCGGAGTCACCTAGTGCAG,10700 fluorescence intensity (a.u.)
6,GGGTCGGGCCATGTATGCGCTGTAGTCAACGGCCCGTACGCGGAGTCACCTAGTGCAG,9830 fluorescence intensity (a.u.)
7,TGAATCCGGCTAGCATCTCTTTACTTGGTTCCGTCTTCTCCGGAGTCACCTAGTGCAG,11700 fluorescence intensity (a.u.)
8,GCCCCTGGACCAAATCAACATCTCTACCAGTATCGTTCTCCGGAGTCACCTAGTGCAG,10200 fluorescence intensity (a.u.)
9,TGTTCTTTTTTTTCCTGGCACCTGTTCTTTTTGCTAGAGGCGGAGTCACCTAGTGCAG,8290 fluorescence intensity (a.u.)
10,TAATTCCTCCTTTATGCATGTACCCCTATATCTAGGATTTCGGAGTCACCTAGTGCAG,9180 fluorescence intensity (a.u.)
11,TCACATTTCGGTACGGCCCATTTGTCCATTCGGCCCATGTCGGAGTCACCTAGTGCAG,12500 fluorescence intensity (a.u.)
12,TACAAGCCACATTTTCAAATCGGTCGTCTCACTTTTTCCTCGGAGTCACCTAGTGCAG,8230 fluorescence intensity (a.u.)
13,GAACTTATTTTACTGCAATTGTTTGCATCACTTATTCTAACGGAGTCACCTAGTGCAG,9570 fluorescence intensity (a.u.)
14,GTGCCTCTTATCTGTCGCCTGTCGCCTGTCGCCCAAGCCTCGGAGTCACCTAGTGCAG,10700 fluorescence intensity (a.u.)
15,TTATATTTCCTGTTGATTCTATTTTTTTATTTCCAATGTACGGAGTCACCTAGTGCAG,8070 fluorescence intensity (a.u.)
16,AATTATTTCTCGTCTTCAATTTGTCCTGGACCGTACCAAACGGAGTCACCTAGTGCAG,9940 fluorescence intensity (a.u.)
17,ATGTAAATTGGTCAGACCCCTTTCTCTCACGTTGACCCTTCGGAGTCACCTAGTGCAG,8650 fluorescence intensity (a.u.)
18,GAGTGAAATGACGGAACGTGGGGTGGGGTGGGCCTGGGCTCGGAGTCACCTAGTGCAG,10100 fluorescence intensity (a.u.)
19,TTGTTTCGCTTATTCATATGCTTATTCGAATCACTTATTTCGGAGTCACCTAGTGCAG,11800 fluorescence intensity (a.u.)
20,GGCCGGGCGAGGCGCTGGGAGGTGGCGGCTAGCGGCGGGGCGGAGTCACCTAGTGCAG,8500 fluorescence intensity (a.u.)
21,ATCCACCTGTCTGTCTATGATATGAAATGAAGCTTTTTCCCGGAGTCACCTAGTGCAG,11000 fluorescence intensity (a.u.)
22,GACCTATTATTTCTAGACCATCTATCTGTGCTAATCTGATCGGAGTCACCTAGTGCAG,9720 fluorescence intensity (a.u.)
23,AAATGATACTTTTCCGCCTATCCTCTGTTGATCTGTTACCCGGAGTCACCTAGTGCAG,8480 fluorescence intensity (a.u.)
24,CCAACAATGTACTCCATTAGTTTATTATGTTTCTTTATAGCGGAGTCACCTAGTGCAG,9030 fluorescence intensity (a.u.)
25,TGGTAGTTTGAGCCTTTTGAGGTACATCCTCACACAATCGCGGAGTCACCTAGTGCAG,8600 fluorescence intensity (a.u.)
26,ACATTAACGTACATAACGCTGACACAATTCTGCATTTCTACGGAGTCACCTAGTGCAG,8050 fluorescence intensity (a.u.)
27,CCGTATTTGAATATATGACGCCGTTGACTTTTTAACTAATCGGAGTCACCTAGTGCAG,17900 fluorescence intensity (a.u.)

# 2 entries picked at random from the list so far:
row,Sequence,binding signal
17,ATGTAAATTGGTCAGACCCCTTTCTCTCACGTTGACCCTTCGGAGTCACCTAGTGCAG,8650 fluorescence intensity (a.u.)
9,TGTTCTTTTTTTTCCTGGCACCTGTTCTTTTTGCTAGAGGCGGAGTCACCTAGTGCAG,8290 fluorescence intensity (a.u.)

# Following part

row,Sequence,binding signal
1,ATGATGGCCCAACAAGTGTCGGAGGGGTTGGAAAAATTCGCGGAGTCACCTAGTGCAG,8110 fluorescence intensity (a.u.)
2,CTGCACATTTGCTAAACAATTCCACTCACATGTCCCTCGACGGAGTCACCTAGTGCAG,8440 fluorescence intensity (a.u.)
3,ACTTTACCAAATTTCGGTCTCTTCATTTAGCATTATCAAACGGAGTCACCTAGTGCAG,9300 fluorescence intensity (a.u.)
4,GCGCCACCACCACCCGCGCCTTCGTCGCCGCCGTCCAACACGGAGTCACCTAGTGCAG,9230 fluorescence intensity (a.u.)
5,TTTGCTGCTACTCATTATTTTGACCGCTGATACATGATAACGGAGTCACCTAGTGCAG,8100 fluorescence intensity (a.u.)
6,CTACCCATGCCCGCTTTGCCCGTTTACCCGCGAAATCTAACGGAGTCACCTAGTGCAG,10100 fluorescence intensity (a.u.)
7,GGTTCTTGGCCGCTCTCGTGTTCGCCGTCTCCGTCTCCGCCGGAGTCACCTAGTGCAG,8530 fluorescence intensity (a.u.)
8,GAGGTTAGCTCGCCTCTGATTGGGTTGGTTGGGTGGTCGGCGGAGTCACCTAGTGCAG,10100 fluorescence intensity (a.u.)
9,TAATCGCTTTTCATTCCTCCTTTGACCAGTATTTACCCTTCGGAGTCACCTAGTGCAG,9840 fluorescence intensity (a.u.)
10,CTGCCACCGATCTTGTCTCTTCTCCGGCCGCCGGGCCGCCCGGAGTCACCTAGTGCAG,10800 fluorescence intensity (a.u.)
11,ATTACAGCTTGTTCAGTTCTTTGTCTTGAATTCTTGATCACGGAGTCACCTAGTGCAG,9260 fluorescence intensity (a.u.)
12,ACGTTATACTACAATGTTTTGGAAACTGTTTTCATTCCATCGGAGTCACCTAGTGCAG,8150 fluorescence intensity (a.u.)
13,CATCTGGCCATCTCTCGAGACTCTCTCCCCTATTTCTTGACGGAGTCACCTAGTGCAG,8760 fluorescence intensity (a.u.)
14,GCGGGGTCCCTATGTTCAATTGTACAGTATATTATCATATCGGAGTCACCTAGTGCAG,9630 fluorescence intensity (a.u.)
15,TTACATATGGAATCTGTCATTTGTTTTGTTATTAGTCTACCGGAGTCACCTAGTGCAG,8660 fluorescence intensity (a.u.)
16,AAAATCGGTCAGTAATATTTCCTCTTCGTTGTTGTTATTCCGGAGTCACCTAGTGCAG,9670 fluorescence intensity (a.u.)
17,CGTACCCAAATCACGGAGATTGTCTGTTCTTTCTTTTTTTCGGAGTCACCTAGTGCAG,10800 fluorescence intensity (a.u.)
18,TGTCCAACATTTTATCTTTCTCGATTACTCGTACGAACAGCGGAGTCACCTAGTGCAG,8920 fluorescence intensity (a.u.)
19,TATATATATATATATATATATATATATAACACACACCGTGCGGAGTCACCTAGTGCAG,15200 fluorescence intensity (a.u.)
20,TTCGCTTTTCATCCCCTTCGCGTCCGTTTCTTCCCTTTCTCGGAGTCACCTAGTGCAG,11700 fluorescence intensity (a.u.)
21,ATGTGTTCTTTTACCCCTTTTCCAACTTCTACTTTTTATTCGGAGTCACCTAGTGCAG,8190 fluorescence intensity (a.u.)
22,ACCGGCCATCTCTCAAGCGTTGACTTGATTAATTGCTTCTCGGAGTCACCTAGTGCAG,15700 fluorescence intensity (a.u.)
23,GCGCCTTCTGGACTCTTCCTGACCCTTTTTTGGCGGGCGACGGAGTCACCTAGTGCAG,10100 fluorescence intensity (a.u.)
24,CTTCGTTCGGGAGCGCGTTTTGATGCATTCATCCAGTGGTCGGAGTCACCTAGTGCAG,8170 fluorescence intensity (a.u.)
25,TTCGTGGGCTTTTTTTCTCCCTCTTGATTGCGGCGCGACTCGGAGTCACCTAGTGCAG,11000 fluorescence intensity (a.u.)
26,ACCTTGCTTGGGAATTAGAGTTGACTGCTAGTGCTGATGTCGGAGTCACCTAGTGCAG,8560 fluorescence intensity (a.u.)
27,CCAAGCTTGTCGTGCCCGTATGTTCGCGTCCATCGTTGACCGGAGTCACCTAGTGCAG,19800 fluorescence intensity (a.u.)
